Test results from US20200223885A1.
Results are given in words; binding and its absence hold for the method and conditions named. Some entries that bind do so weakly or less than the wild type. Sequences can lack the tags named with a protein.

Target: monoclonal antibody (RITUXAN, manufactured by Zenyaku Kogyo Co., Ltd.)
Assay: affinity chromatography on the FcR9-immobilized gel column (FcR9 prepared with a cysteine tag as in Examples 3 to 5, Comparative Example 1); equilibration 20 mM acetate, 50 mM NaCl, pH 5.0; elution by pH gradient to 10 mM glycine-HCl pH 3.0; 0.6 mL/min; A280

B1: Fc-binding protein FcR9 (human FcγRIIIa amino acid substitution product) (receptor)
chain: KIEEAMGMRTEDLPKAEVILEPQWNRVLEKDSVTLKCRGAYSPEDNSTQWFHNESLISSQASSYLIDAATVDDSGEYRCQTSLSTLSDPVQLEVHIGWLLLQAPRWEFKEGDPIHLRCHSWKNTALHKVTYLQNGKGRKYFHHNSDFYIPKATLKDSGSYSCRGLVGSKNVSSETVNITITQGGHHHHHH
B1 was tested, and the binding was “binds”.
